Source: US20210396758A1
Results are given in words; binding and its absence hold for the method and conditions named. Tags and fused reporters may be left off the sequences shown.

Molecular target: Glutathione S-transferase
Assay: QC ELISA of the chimeric human/mouse IgG1 antibody on immobilized control protein; signal over background

binding	Binder
no binding	AbD33047 full length chimeric antibody against human Loricrin with an IgG1 mouse Fc region (antibody, V domains shown) VH: QVQLVQSGAEVKKPGASVKVSCKASGYTFNDYYIHWVRQAPGQGLEWMGVISPNSGKTNYAQKFQGRVTMTRDTSISTAYMELSRLRSEDTAVYYCARDLYPDSSAFDIWGQGTLVTVSS VL: DIELTQPPSVSVSPGQTASITCSGDNLGDKYAHWYQQKPGQAPVLVIYDDNERPSGIPERFSGSNSGNTATLTISGTQAEDEADYYCQSYDSGNRVFGGGTKLTVLG
no binding	AbD33473 full length chimeric antibody against human Ambra-1 with an IgG1 mouse Fc region (antibody, V domains shown) VH: EVQLVQSGAEVKKPGESLKISCKGSGYSFSSYWIHWVRQMPGKGLEWMGTIFPSRSYTTYSPSFQGQVTISADKSISTAYLQWSSLKASDTAMYYCARDTPSTALKSPFDYWGQGTLVTVSS VL: DIVLTQPPSVSGAPGQRVTISCSGSSSNIGYNYVYWYQQLPGTAPKLLIYENNKRPSGVPDRFSGSKSGTSASLAITGLQAEDEADYYCSSWDSHSNSYVFGGGTKLTVLG
